Assay results: publication PMC5847545
Results are given in words; binding and its absence hold for the method and conditions named. In cells and extracts the contact can be indirect. Some binding calls cover weakened binding; strength is not graded here. For some of these results: Where a sequence is shown, tags or fusion partners need not be part of it.

The chains behind the UniProt entries cited, without tags or fusion partners.
UniProt Q9ULW0: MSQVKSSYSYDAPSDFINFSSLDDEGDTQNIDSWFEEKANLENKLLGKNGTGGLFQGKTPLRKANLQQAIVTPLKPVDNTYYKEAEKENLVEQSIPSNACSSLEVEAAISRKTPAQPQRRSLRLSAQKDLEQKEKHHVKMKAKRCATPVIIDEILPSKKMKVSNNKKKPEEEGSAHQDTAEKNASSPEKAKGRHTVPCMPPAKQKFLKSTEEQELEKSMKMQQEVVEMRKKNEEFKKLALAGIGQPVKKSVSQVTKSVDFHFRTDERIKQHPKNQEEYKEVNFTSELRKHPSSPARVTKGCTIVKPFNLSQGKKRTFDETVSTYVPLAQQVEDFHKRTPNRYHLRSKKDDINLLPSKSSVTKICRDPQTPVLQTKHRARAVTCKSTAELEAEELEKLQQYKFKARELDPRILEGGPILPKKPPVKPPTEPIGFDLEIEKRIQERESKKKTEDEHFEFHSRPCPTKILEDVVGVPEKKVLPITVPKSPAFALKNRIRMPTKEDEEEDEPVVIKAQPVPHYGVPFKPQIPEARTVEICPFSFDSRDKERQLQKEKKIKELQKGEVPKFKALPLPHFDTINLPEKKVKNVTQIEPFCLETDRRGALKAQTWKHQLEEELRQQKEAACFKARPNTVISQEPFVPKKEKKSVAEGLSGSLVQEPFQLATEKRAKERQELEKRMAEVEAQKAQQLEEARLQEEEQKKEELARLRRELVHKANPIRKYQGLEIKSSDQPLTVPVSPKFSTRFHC
UniProt Q92793: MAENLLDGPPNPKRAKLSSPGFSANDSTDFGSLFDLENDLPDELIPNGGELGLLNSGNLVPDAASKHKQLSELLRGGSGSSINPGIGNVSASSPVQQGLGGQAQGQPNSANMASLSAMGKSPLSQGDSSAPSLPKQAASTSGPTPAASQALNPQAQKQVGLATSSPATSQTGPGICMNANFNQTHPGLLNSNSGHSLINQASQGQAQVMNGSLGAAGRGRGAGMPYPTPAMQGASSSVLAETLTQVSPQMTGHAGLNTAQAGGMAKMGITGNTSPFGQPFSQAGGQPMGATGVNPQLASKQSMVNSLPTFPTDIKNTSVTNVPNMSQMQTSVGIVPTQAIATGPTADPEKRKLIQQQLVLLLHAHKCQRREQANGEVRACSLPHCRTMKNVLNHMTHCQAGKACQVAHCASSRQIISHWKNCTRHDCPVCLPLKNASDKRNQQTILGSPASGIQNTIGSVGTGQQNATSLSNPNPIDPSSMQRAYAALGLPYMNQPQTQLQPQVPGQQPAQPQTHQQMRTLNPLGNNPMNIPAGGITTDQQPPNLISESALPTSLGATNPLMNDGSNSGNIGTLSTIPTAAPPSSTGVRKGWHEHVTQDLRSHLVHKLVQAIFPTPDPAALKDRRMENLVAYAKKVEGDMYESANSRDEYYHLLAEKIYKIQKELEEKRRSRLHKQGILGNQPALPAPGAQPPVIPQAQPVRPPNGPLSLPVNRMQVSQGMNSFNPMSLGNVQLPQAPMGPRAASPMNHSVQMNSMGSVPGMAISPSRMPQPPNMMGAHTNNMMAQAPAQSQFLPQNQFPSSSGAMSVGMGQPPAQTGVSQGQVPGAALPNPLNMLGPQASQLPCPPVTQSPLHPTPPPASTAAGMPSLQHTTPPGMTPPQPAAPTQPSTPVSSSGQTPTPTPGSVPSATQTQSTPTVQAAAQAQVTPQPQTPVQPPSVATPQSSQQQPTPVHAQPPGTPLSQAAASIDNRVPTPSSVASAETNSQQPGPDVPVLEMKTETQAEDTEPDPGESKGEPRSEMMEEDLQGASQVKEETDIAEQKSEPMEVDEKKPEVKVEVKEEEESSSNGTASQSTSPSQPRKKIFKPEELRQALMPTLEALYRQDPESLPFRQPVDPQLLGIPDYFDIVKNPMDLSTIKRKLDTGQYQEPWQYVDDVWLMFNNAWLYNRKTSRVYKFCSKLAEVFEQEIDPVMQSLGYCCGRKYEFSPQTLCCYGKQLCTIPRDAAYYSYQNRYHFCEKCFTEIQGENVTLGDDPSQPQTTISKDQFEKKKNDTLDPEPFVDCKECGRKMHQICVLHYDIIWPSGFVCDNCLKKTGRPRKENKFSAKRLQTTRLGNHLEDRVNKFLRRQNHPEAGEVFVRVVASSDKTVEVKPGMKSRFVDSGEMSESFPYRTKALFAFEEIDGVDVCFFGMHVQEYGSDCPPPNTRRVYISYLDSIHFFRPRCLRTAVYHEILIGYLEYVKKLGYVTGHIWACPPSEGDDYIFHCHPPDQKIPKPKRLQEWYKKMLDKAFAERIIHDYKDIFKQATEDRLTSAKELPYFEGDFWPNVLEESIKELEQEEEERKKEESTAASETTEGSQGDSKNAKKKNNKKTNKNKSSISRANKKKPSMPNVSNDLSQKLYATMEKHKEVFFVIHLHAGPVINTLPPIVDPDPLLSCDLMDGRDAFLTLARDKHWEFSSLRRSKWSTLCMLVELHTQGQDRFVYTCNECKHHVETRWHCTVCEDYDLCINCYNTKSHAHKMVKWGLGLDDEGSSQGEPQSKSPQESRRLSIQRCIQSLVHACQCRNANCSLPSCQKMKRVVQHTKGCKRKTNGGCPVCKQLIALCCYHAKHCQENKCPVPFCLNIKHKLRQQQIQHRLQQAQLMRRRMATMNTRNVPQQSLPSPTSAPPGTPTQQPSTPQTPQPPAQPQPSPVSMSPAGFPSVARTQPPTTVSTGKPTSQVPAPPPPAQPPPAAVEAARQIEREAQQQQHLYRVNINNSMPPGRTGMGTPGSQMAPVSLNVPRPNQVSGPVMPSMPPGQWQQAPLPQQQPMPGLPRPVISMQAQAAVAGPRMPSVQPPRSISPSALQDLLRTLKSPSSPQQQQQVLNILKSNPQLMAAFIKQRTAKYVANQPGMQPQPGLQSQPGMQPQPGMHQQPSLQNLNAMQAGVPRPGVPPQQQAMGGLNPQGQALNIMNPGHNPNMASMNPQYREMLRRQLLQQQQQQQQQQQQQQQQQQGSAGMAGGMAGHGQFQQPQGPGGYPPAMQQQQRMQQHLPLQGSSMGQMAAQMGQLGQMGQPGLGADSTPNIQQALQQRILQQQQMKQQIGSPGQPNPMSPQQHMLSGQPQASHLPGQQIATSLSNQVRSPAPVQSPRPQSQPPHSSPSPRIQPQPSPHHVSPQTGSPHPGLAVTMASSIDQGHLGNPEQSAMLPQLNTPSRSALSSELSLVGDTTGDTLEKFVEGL
UniProt P45481: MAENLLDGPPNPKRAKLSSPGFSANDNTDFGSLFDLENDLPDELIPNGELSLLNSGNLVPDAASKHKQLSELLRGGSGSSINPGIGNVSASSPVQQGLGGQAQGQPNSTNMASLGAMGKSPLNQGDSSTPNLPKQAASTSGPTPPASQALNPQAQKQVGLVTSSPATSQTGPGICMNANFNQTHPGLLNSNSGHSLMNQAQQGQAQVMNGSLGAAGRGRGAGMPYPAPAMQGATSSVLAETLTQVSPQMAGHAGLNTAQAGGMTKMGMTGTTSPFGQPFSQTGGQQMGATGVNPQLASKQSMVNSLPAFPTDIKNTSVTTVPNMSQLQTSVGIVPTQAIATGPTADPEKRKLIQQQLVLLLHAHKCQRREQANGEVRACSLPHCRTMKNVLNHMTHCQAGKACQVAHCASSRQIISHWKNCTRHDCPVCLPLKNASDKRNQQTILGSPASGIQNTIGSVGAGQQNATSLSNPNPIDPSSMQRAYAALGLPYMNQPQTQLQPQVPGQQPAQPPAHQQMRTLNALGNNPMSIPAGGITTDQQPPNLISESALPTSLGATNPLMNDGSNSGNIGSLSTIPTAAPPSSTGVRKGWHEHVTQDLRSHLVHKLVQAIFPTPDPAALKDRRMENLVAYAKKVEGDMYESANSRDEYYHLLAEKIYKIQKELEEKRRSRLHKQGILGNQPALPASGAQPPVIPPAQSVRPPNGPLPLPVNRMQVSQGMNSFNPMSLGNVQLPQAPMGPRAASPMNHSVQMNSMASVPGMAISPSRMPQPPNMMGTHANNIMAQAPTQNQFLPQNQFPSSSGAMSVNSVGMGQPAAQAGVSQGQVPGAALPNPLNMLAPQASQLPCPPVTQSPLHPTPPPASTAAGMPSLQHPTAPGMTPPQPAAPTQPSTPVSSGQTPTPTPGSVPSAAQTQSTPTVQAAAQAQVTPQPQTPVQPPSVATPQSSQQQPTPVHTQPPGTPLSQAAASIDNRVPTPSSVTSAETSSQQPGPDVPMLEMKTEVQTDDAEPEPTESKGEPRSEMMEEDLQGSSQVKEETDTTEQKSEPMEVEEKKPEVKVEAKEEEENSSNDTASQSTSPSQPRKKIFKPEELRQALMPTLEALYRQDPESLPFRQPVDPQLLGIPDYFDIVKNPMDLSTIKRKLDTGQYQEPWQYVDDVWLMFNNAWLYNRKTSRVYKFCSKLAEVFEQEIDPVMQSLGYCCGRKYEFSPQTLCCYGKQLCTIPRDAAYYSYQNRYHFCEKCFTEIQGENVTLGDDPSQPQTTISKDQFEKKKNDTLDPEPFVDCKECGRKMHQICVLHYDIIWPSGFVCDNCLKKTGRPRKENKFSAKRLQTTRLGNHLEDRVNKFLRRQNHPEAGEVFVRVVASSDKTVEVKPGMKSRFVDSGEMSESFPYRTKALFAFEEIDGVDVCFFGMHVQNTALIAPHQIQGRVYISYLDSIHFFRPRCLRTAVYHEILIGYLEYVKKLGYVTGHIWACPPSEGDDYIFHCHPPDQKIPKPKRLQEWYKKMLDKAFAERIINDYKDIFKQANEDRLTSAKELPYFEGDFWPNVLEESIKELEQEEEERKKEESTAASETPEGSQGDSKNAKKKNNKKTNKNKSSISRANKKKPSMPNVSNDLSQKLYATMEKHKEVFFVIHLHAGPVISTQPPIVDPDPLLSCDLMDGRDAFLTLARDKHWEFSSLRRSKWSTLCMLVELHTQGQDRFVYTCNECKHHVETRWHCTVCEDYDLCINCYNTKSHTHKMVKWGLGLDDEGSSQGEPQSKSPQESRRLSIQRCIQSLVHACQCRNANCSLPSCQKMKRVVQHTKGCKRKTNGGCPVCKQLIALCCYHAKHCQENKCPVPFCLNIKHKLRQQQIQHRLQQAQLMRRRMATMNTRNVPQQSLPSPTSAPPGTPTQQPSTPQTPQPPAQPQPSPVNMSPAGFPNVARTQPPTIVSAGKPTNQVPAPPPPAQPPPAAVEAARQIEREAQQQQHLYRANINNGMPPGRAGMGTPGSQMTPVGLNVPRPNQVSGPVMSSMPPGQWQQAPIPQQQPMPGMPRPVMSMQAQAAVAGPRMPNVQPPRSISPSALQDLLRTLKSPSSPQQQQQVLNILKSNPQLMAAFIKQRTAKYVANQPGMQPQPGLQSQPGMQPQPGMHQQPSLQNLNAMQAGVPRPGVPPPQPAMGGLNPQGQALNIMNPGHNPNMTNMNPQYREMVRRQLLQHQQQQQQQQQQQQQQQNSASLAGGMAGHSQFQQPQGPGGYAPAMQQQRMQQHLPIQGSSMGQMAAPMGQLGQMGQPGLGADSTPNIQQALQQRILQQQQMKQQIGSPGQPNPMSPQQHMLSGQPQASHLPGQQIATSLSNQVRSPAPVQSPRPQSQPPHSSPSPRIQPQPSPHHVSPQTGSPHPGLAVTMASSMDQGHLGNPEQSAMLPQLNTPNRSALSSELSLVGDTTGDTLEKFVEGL

B1: V5-PPAT domain of COASY (180-350) (domain or fragment, UniProt Q13057 180-350)
chain: VAGSPKQPVRGYYRGAVGGTFDRLHNAHKVLLSVACILAQEQLVVGVADKDLLKSKLLPELLQPYTERVEHLSEFLVDIKPSLTFDVIPLLDPYGPAGSDPSLEFLVVSEETYRGGMAINRFRLENDLEELALYQIQLLKDLRHTENEEDKVSSSSFRQRMLGNLLRPPYE
B2: Coenzyme A synthase (COASY), endogenous (protein, UniProt Q13057 1-564)
chain: MAVFRSGLLVLTTPLASLAPRLASILTSAARLVNHTLYVHLQPGMSLEGPAQPQSSPVQATFEVLDFITHLYAGADVHRHLDVRILLTNIRTKSTFLPPLPTSVQNLAHPPEVVLTDFQTLDGSQYNPVKQQLVRYATSCYSCCPRLASVLLYSDYGIGEVPVEPLDVPLPSTIRPASPVAGSPKQPVRGYYRGAVGGTFDRLHNAHKVLLSVACILAQEQLVVGVADKDLLKSKLLPELLQPYTERVEHLSEFLVDIKPSLTFDVIPLLDPYGPAGSDPSLEFLVVSEETYRGGMAINRFRLENDLEELALYQIQLLKDLRHTENEEDKVSSSSFRQRMLGNLLRPPYERPELPTCLYVIGLTGISGSGKSSIAQRLKGLGAFVIDSDHLGHRAYAPGGPAYQPVVEAFGTDILHKDGIINRKVLGSRVFGNKKQLKILTDIMWPIIAKLAREEMDRAVAEGKRVCVIDAAVLLEAGWQNLVHEVWTAVIPETEAVRRIVERDGLSEAAAQSRLQSQMSGQQLVEQSHVVLSTLWEPHITQRQVEKAWALLQKRIPKTHQALD

Experiments:
[1] = biological target: Targeting Protein for Xklp2 (TPX2), endogenous (human (endogenous in A549 and HEK-293T)) (UniProt Q9ULW0); assay: co-IP; endogenous TPX2 pulled down with TPX2 antibody, endogenous CBP detected; with and without COASY knockdown; cell line not stated; NP-40 lysate
[2] = biological target: T1, Coenzyme A synthase (COASY), endogenous (human (endogenous in A549 and HEK-293T)) (UniProt Q13057); assay: co-IP; mitotically synchronized HEK-293T cells; endogenous COASY immunoprecipitated, TPX2 and CBP detected (Supplementary Fig. 5b)
T1 sequence: B2 chain

[3] = biological target: CREB-binding protein (CBP), endogenous (human (endogenous in A549 and HEK-293T)) (UniProt Q92793); assay: co-IP; A549 cells synchronized by thymidine-nocodazole block and released for the indicated times; endogenous CBP immunoprecipitated with CBP antibody, blot for TPX2 and COASY
[4] = biological target: CREB-binding protein (CBP), endogenous (human (endogenous in A549 and HEK-293T)) (UniProt Q92793); assay: co-IP; as the endogenous CBP immunoprecipitation from A549 cells, at 80 min after release from thymidine-nocodazole block
V5-tagged TPX2 [5] = biological target: V5-tagged TPX2 (UniProt Q9ULW0); assay: co-IP; HEK-293T cotransfected with V5-TPX2 and HA-CBP (wild type or catalytic-deficient); 20 min after release from thymidine-nocodazole block; IP with V5 antibody or control IgG, blot for HA
V5-tagged TPX2 [6] = biological target: V5-tagged TPX2 (UniProt Q9ULW0); assay: co-IP; as the V5-TPX2 / HA-CBP co-immunoprecipitation, repeated in MDA-MB-231 cells (Supplementary Fig. 4d)
FLAG-CBP-HA, wild type = FLAG-CBP-HA, wild type (UniProt P45481); assay: co-IP; HEK-293T cotransfected with V5-tagged COASY domains and CBP cDNA, enriched in mitosis by nocodazole; HA-CBP immunoprecipitated, blot with V5 antibody

Molecule | binding [2] | binding [3] | binding [4] | further results
CREB-binding protein (CBP), endogenous (from UniProt Q92793 1-2442) | binds |  |  | binding [1]: binds
Targeting Protein for Xklp2 (TPX2), endogenous (from UniProt Q9ULW0 1-747) | binds | binds | binds weakly | 
FLAG-CBP-HA, wild type (from UniProt P45481 1-2441) |  |  |  | binding (V5-tagged TPX2 [5]): binds; binding (V5-tagged TPX2 [6]): binds
B1 |  |  |  | binding (FLAG-CBP-HA, wild type): binds
B2 |  | binds | binds weakly | 
